This test addresses T1, ArfA-ΔC17 (E. coli) (UniProt P36675).
T1 sequence: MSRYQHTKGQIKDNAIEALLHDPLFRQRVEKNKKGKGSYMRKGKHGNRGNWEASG
The experiment in a line: ultrafiltration assay (centrifugal ultrafiltration, 100 kDa; SDS-PAGE of the ribosome fraction); 70S ribosomes (20 pmol) stalled with tRNAfMet and mRNA + 0 or mRNA + 21, mixed with ArfA (20 pmol) and release factor (RF2 0-50 pmol); 80 mM Tris-HCl pH 7.5, 7 mM MgCl2, 150 mM NH4Cl, 2.5 mM dithiothreitol, 2 mM spermidine; 37°C, 10 min; free factors removed, gel stained with Oriole; both purified.

Amino acid sequences for entries named in this document (tags omitted).
UniProt P0A7I0: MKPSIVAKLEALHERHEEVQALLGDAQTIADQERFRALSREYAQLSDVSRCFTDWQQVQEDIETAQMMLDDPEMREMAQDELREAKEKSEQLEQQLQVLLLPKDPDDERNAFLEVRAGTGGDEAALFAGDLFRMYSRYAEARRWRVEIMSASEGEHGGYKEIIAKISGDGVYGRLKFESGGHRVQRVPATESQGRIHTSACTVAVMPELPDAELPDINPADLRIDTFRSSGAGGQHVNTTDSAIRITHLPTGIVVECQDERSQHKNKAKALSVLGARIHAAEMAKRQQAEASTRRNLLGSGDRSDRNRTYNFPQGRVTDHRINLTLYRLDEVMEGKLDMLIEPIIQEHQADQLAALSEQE

These are yes or no findings as the source states them, for the method shown.

The source of these data is article PMC4245945.

RF1 (from UniProt P0A7I0 1-360): the binding entry was “no binding”.
